Results deposited as PubChem BioAssay AID1259279 (Sanger Institute, 2017).
Test: 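Kinases that colorectal cancer cells need to survive, alone or with drugs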 (primary screen). Cell system: LS180 human colorectal cancer cells. Reagents: siRNA pool against human genes. Challenge: anchor drug BYL719 at 1 µM, cetuximab at 5 µg/ml or trametinib at 10 nM, or DMSO vehicle only. Measured: 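Viability as a fraction of non-targeting control and as a replicate-averaged robust z-score, with separate synergy scores for BYL719, cetuximab and trametinib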. Reading the numbers: viability z-score, no drug: higher = more viable cells after knock-down; viability, no drug: higher = more viable cells; synergy score with BYL719: higher = stronger synthetic lethal synergy with drug. Call rule: 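Essential (active) calls need a no-drug viability z-score lower than -3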. Calls: active = essential (knock-down alone cuts viability); inactive = no change without drug.
The deposit covers 794 reagents; below is a part drawn at random. 11 of all reagents (1.4%) count as active. 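Calls reflect knock-down alone in the vehicle arm, not drug synergy.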 Reagents against one gene are numbered here. Viability is capped at 1. Not all columns of the deposit are shown. The record does not give: the amount of reagent, the time to read-out.

Gene	reagent	viability z-score, no drug	viability, no drug (fraction)	synergy score with BYL719	call
PKIA (cAMP-dependent protein kinase inhibitor alpha)	1	-0.896	0.808	-0.183	inactive
BRAF (B-Raf proto-oncogene, serine/threonine kinase)	1	-0.59	0.842	0.106	inactive
CDK5R1 (cyclin dependent kinase 5 regulatory subunit 1)	1	-0.385	0.864	-0.124	inactive
OXSR1 (oxidative stress responsive kinase 1)	1	0.86	1	-0.138	inactive
AURKB (aurora kinase B)	1	0.86	1	0.114	inactive
PDK1 (pyruvate dehydrogenase kinase 1)	1	0.86	1	-0.0213	inactive
CHKB (choline kinase beta)	1	0.86	1	-0.00901	inactive
EPHA10 (EPH receptor A10)	1	-0.325	0.871	-0.0176	inactive
PBK (PDZ binding kinase)	1	-0.407	0.862	-0.242	inactive
PLK4 (polo like kinase 4)	1	-0.85	0.813	-0.0311	inactive
PLK1 (polo like kinase 1)	1	-3.76	0.496	0.0371	active
PRKAB1 (protein kinase AMP-activated non-catalytic subunit beta 1)	1	0.0799	0.915	-0.079	inactive
BMP2K (BMP2 inducible kinase)	1	0.86	1	-0.124	inactive
ALPK2 (alpha kinase 2)	1	0.82	0.996	-0.0642	inactive
DGKI (diacylglycerol kinase iota)	1	0.86	1	-0.163	inactive
PSTK (phosphoseryl-tRNA kinase)	1	-1.34	0.76	-0.0525	inactive
NEK11 (NIMA related kinase 11)	1	-3.68	0.504	-0.188	active
STK32A (serine/threonine kinase 32A)	1	0.86	1	-0.0718	inactive
STK25 (serine/threonine kinase 25)	1	0.0735	0.914	-0.00113	inactive
PAK2 (p21 (RAC1) activated kinase 2)	1	0.86	1	-0.0459	inactive
SRPK1 (SRSF protein kinase 1)	1	-0.937	0.804	-0.179	inactive
HUNK (hormonally up-regulated Neu-associated kinase)	1	-3.36	0.54	-0.0264	active
PAK6 (p21 (RAC1) activated kinase 6)	1	0.86	1	0.0692	inactive
TJP2 (tight junction protein 2)	1	0.86	1	-0.103	inactive
IRAK3 (interleukin 1 receptor associated kinase 3)	1	-0.0176	0.904	0.156	inactive
FXN (frataxin)	1	0.628	0.975	-0.119	inactive
HK2 (hexokinase 2)	1	-1.48	0.745	0.00213	inactive
TCF12 (transcription factor 12)	1	-0.27	0.877	-0.172	inactive
SIK2 (salt inducible kinase 2)	1	0.0153	0.908	-0.076	inactive
PRKCZ (protein kinase C zeta)	1	-1.49	0.743	0.0858	inactive
SPHK1 (sphingosine kinase 1)	1	0.86	1	0.0721	inactive
MAPK1 (mitogen-activated protein kinase 1)	1	-1.17	0.778	0.0569	inactive
PRKACA (protein kinase cAMP-activated catalytic subunit alpha)	1	0.337	0.943	-0.0639	inactive
CHKA (choline kinase alpha)	1	-2.2	0.667	-0.102	inactive
KRAS (KRas proto-oncogene, GTPase)	1	-3.61	0.512	-0.106	active
SGK2 (serum/glucocorticoid regulated kinase 2)	1	-0.664	0.834	-0.045	inactive
TP53BP1 (tumor protein p53 binding protein 1)	1	0.86	1	-0.201	inactive
GUCY2C (guanylate cyclase 2C)	1	0.86	1	-0.103	inactive
IPPK (inositol-pentakisphosphate 2-kinase)	1	0.86	1	-0.135	inactive
GALK2 (galactokinase 2)	1	0.86	1	0.0975	inactive
PRKAB2 (protein kinase AMP-activated non-catalytic subunit beta 2)	1	-1.53	0.739	-0.0101	inactive
CDK2 (cyclin dependent kinase 2)	1	0.86	1	-0.201	inactive
FGFRL1 (fibroblast growth factor receptor like 1)	1	0.86	1	0.00401	inactive
IKBKB (inhibitor of nuclear factor kappa B kinase subunit beta)	1	-0.186	0.886	-0.0972	inactive
INSRR (insulin receptor related receptor)	1	0.418	0.952	-0.0377	inactive
LRRK1 (leucine rich repeat kinase 1)	1	-0.755	0.824	-0.0597	inactive
JAK2 (Janus kinase 2)	1	0.86	1	-0.00019	inactive
ZC3H11A (zinc finger CCCH-type containing 11A)	1	0.403	0.95	0.0443	inactive
ILK (integrin linked kinase)	1	0.253	0.934	-0.136	inactive
ILK (integrin linked kinase)	2	-0.427	0.86	-0.018	inactive

Sorted by “synergy score with BYL719” (low to high): 3 of the entries above.
Gene	reagent	viability z-score, no drug	viability, no drug (fraction)	synergy score with BYL719	call
PBK (PDZ binding kinase)	1	-0.407	0.862	-0.242	inactive
PLK4 (polo like kinase 4)	1	-0.85	0.813	-0.0311	inactive
PLK1 (polo like kinase 1)	1	-3.76	0.496	0.0371	active
